The results in this text go back to article doi:10.1101/581231.

The test concerns the target Arabidopsis thaliana SOBIR1 ectodomain (residues 1-270) (Arabidopsis thaliana) (UniProt Q9SKB2). In words: crystal structure.

No constants are given. Whether binding was seen depends on the method and setting.

B1: Arabidopsis thaliana SOBIR1 ectodomain (residues 1-270) (domain or fragment, UniProt Q9SKB2 32-270)
chain: VEWLDIDSSDLKALQVIETELGVNSQRSSASDVNPCGRRGVFCERRHSATTGEYVLRVTRLVYRSRSLTGTISPVIGMLSELKELTLSNNQLVNAVPVDILSCKQLEVLDLRKNRFSGQIPGNFSSLSRLRILDLSSNKLSGNLNFLKNLRNLENLSVANNLFSGKIPEQIVSFHNLRFFDFSGNRYLEGPAPVMSSIKLQTSPHQTRHILAETPTSSPTNKPNNSTTSKAPKGAPKPG
modifications: N-glycan attached to asparagine 154
For the molecule B1, the binding entry was “no binding”.
